# Data taken from article doi:10.1101/2021.06.20.449050.
# Sequences of proteins named here, by UniProt entry; tags and fusion partners are left off.
# UniProt Q9ZSD4, whole entry: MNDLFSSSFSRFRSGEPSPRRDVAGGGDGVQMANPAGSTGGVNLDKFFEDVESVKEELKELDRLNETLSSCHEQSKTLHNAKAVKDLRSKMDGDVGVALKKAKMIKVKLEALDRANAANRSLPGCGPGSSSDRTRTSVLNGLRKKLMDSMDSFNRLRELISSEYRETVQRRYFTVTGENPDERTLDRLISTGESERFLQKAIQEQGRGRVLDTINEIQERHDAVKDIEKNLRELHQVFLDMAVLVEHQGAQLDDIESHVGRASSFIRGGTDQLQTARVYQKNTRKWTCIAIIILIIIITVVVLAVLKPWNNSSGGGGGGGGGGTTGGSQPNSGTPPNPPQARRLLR
# UniProt Q94AI6, whole entry: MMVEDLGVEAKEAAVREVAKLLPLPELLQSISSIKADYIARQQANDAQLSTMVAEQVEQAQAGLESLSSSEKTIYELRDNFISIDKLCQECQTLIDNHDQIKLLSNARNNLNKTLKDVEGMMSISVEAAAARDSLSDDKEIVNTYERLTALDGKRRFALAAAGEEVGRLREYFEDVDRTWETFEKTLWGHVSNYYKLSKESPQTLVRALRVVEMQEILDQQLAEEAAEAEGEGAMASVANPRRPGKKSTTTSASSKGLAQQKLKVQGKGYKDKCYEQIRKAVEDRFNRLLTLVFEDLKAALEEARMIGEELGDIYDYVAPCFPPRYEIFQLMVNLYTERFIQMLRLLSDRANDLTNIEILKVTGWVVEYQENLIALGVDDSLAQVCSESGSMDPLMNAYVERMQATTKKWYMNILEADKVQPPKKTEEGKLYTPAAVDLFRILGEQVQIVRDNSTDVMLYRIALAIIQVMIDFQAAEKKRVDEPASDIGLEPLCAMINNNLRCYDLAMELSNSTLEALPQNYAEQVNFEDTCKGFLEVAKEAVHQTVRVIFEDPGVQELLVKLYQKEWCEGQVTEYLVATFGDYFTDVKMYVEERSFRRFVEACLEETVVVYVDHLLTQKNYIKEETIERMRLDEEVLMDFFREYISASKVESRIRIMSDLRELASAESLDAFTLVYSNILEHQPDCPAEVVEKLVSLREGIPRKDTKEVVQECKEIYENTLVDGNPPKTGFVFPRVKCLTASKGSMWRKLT
# No constants are given. Whether binding was seen depends on the method and setting. Binding seen in cells or lysates may run through a third protein. Some results given as binding are weak or reduced against the parent protein; the word gives no strength.
# Target: GFP-SYP121 (Arabidopsis thaliana) (UniProt Q9ZSD4)
# Test: co-IP
substance,measurement,value
SEC6 (from UniProt Q94AI6 1-752),binding,binds
